Measured values reported in article PMC12774626.
Read-outs that look alike come from different tables or passages of the source. These are yes or no findings as the source states them, for the method shown. In cells and extracts the contact can be indirect. Here binding means that the protein was enriched with, or labelled near, the bait; the list need not be complete.

Amino acid sequences for entries named in this document (tags omitted). A change or cut given only in a name is not applied to a line headed by its entry.
UniProt B1WBN7: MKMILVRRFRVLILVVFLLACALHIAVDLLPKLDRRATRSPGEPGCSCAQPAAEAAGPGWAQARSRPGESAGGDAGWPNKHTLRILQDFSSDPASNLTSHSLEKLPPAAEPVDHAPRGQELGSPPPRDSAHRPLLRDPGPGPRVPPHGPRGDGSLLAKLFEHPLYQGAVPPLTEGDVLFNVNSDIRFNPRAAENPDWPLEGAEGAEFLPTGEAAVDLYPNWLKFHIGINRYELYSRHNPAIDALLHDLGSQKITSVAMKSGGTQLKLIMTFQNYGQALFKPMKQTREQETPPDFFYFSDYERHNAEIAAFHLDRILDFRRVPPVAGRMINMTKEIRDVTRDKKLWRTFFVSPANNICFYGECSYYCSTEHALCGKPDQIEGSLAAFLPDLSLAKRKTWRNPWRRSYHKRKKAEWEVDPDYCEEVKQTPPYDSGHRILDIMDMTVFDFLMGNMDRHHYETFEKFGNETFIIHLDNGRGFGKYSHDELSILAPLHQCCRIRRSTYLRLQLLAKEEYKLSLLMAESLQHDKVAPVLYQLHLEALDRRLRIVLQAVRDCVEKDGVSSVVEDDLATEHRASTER
UniProt O88453: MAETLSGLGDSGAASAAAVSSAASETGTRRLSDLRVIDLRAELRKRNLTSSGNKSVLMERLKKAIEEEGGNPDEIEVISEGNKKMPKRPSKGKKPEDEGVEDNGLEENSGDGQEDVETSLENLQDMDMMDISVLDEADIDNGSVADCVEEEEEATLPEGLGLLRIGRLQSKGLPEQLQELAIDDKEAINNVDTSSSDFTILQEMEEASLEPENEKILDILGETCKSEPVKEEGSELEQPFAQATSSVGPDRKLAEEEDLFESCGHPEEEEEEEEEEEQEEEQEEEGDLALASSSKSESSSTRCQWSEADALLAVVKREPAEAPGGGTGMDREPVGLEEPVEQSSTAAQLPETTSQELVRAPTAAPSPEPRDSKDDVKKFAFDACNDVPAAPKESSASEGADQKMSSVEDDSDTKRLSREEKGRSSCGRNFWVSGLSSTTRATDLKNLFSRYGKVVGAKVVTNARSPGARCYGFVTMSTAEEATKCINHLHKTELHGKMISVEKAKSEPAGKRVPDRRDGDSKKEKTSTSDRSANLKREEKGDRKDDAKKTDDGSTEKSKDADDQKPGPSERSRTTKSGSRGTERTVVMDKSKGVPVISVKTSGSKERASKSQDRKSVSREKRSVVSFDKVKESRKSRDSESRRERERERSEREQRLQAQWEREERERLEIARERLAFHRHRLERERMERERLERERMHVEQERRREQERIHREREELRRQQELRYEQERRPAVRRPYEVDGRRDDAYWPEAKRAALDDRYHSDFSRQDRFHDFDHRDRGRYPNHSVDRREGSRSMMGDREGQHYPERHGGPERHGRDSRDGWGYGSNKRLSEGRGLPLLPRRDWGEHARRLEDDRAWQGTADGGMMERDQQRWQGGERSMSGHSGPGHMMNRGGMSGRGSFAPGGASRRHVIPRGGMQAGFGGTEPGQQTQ
UniProt O08629: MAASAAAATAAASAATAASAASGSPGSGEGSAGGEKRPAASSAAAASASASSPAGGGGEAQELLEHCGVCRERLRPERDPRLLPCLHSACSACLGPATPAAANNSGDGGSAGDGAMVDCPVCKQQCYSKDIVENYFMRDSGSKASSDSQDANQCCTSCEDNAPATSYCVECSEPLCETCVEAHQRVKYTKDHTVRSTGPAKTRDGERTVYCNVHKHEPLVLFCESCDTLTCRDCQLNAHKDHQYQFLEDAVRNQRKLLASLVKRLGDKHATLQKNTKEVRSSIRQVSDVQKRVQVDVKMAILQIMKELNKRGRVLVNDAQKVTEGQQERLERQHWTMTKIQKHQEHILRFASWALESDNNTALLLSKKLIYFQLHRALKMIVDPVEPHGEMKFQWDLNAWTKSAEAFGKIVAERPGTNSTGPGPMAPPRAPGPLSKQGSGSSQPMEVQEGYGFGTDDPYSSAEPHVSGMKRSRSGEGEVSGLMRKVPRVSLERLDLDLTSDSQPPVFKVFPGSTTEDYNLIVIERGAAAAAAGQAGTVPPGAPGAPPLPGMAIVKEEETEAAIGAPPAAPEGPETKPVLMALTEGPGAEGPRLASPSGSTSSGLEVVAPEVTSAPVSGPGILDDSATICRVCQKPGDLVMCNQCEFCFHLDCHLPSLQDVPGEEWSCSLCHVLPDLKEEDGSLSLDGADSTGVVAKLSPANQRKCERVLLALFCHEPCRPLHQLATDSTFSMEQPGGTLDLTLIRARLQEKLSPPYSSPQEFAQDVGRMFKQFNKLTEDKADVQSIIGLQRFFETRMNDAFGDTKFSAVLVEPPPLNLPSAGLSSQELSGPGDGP

B1: ADAR, endogenous in rat hippocampal tissue (enzyme, UniProt P55266 1-1175)
chain: MSQGFRGPTGVFPHQTQPCLDPSYEHSKWRYLQPRGSESYLRSFQLQQIEFLKGRLPEAPLIGAQTQSLPPFLPGHWPRFPGPPAQGKQPEIWGFPRSVTLRNQGFHIGPPLPPPHSRGPPWRGAEGLCSHFQELSISQNPEQKVLNRLEELGEGKATTAYALARELRTPKKDINRILYSLERKGKLHRGVGKPPLWSLVPLSQACTQPPRAVNSDKEVPRGEPDLDSEDGDPASDLEGPSELLDMAEIKEKICDYLFNVSKSSALNLAKNIGLAKARDVNAVLIDLERQGDVYREGATPPIWYLTDKKRERLQMKRSTHSGPAATPAAVSEATQSTSFPTCHPPQSGGSSSMATSKRVENGQEPVTKYESRHEARPGPVRLRPHAYHNGPSRAGYVASENGPWATDDIPDNLNSIHTAPGEFRAIMEMPSFYSPTLPRCSPYKKLTECQLKNPVSGLLEYAQFTSQTCDFNLIEQSGPSHEPRFKFQVVINGREFPPAEAGSKKVAKQDAAVKAMAILLREAKAKDSGQPEELSNCPMEEDPEKPAESQPPSSSATSLFSGKSPVTTLLECMHKLGNSCEFRLLSKEGPAHDPKFQYCVAVGAQTFPSVSAPSKKVAKQMAAEEAMKALQEEAANSADDQSGGANTDSLDESVAPNKIRRIGELVRYLNTNPVGGLLEYARSHGFAAEFKLIDQSGPPHEPKFVYQAKVGGRWFPAVCAHSKKQGKQDAADAALRVLIGESEKAEQLGFAEVTPVTGASLRRTMLLLSRSPDAHPKTLPLTGSTFHDQIAMLSHRCFNALTNSFQPSLLGRKILAAIIMKRDPEDMGVVVSLGTGNRCVKGDSLSLKGETVNDCHAEIISRRGFIRFLYSELMKYNHHTAKNSIFELARGGEKLQIKKTVSFHLYISTAPCGDGAHFDKSCSDRAVESTESRHYPVFENPKQGKLRTKVENGEGTIPVESSDIVPTWDGIRLGERLRTMSCSDKILRWNVLGLQGALLTHFLQPVYLKSVTLGYLFSQGHLTRAICCRVTRDGNAFEDGLRYPFIVNHPKVGRVSVYDSKRQSGKTKETSVNWCLADGYDLEILDGTRGTVDGPGKELSRVSKKNIFLQFKKLCSFRARRDLLQLSYGEAKKAARDYDLAKNYFKKSLRDMGYGNWISKPQEEKNFYLCPVPND
B2: DAGLA, endogenous in rat hippocampal tissue (enzyme, UniProt Q5YLM1 1-1044)
chain: MPGIVVFRRRWSVGSDDLVLPAIFLFLLHTTWFVILSVVLFGLVYNPHEACSLNLVDHGRGYLGILLSCMIAEMAIIWLSMRGGILYTEPRDSMQYVLYVRLAILVIEFIYAIVGIVWLTQYYTSCNDLTAKNVTLGMVVCNWVVILSVCITVLCVFDPTGRTFVKLRATKRRQRNLRTYNLRHRLEEGQATSWSRRLKVFLCCTRTKDSQSDAYSEIAYLFAEFFRDLDIVPSDIIAGLVLLRQRQRAKRNAVLDEANNDILAFLSGMPVTRNTKYLDLKNSHEMLRYKEVCYYMLFALAAYGWPMYLMRKPTCGLCQLARSCSCCLCPARPRFAPGVTIEEDNCCGCNAIAIRRHFLDENMTAVDIVYTSCHDAVYETPFYVAVDHDKKKVVISIRGTLSPKDALTDLTGDAERLPVEGHRGTWLGHKGMVLSAEYIKKKLEQEMVLSQAFGRDLGRGTKHYGLIVVGHSLGAGTAAILSFLLRPQYPTLKCFAYSPPGGLLSEDAMEYSKEFVTAVVLGKDLVPRIGLSQLEGFRRQLLDVLQRSTKPKWRIIVGATKCIPKSELPEDQVEVTALASTRLWTHPSDLTIALSASTPLYPPGRIIHVVHNHPAEQCCCCEQEEPTYFAIWGDNKAFNEVIISPAMLHEHLPYVVMEGLNKVLENYNKGKTALLSAAKVMVSPTEVDLTPELIFQQQPLPTGPPLPTGLALELPATEHRNSSVRSKSQSEMSLEGFSEGRLLSPVAAASAARQDPVELLLLSTQERLAAELQSRRAPLATMESLSDTESLYSFDSRRSSGFRSIRGSPSLHAVLERDEGHLFYIDPAIPEENPSLSSRTELLAADSLSKHSQDTQPLEAALGSGGVTPERPPSAANDEEEAAGGSEGGGVAPRGELALHNGRLGDSPSPQVLEFAEFIDSLFNLDSKSSSFQDLYCMMVPESPTSDYTEGPKSPSQQEILLRAQFEPNLVPKPPRLFAGSAEPSSGISLSPSFPLSSSGELMDLTPTGLSSQECLATDKIRTSTPTGHGASPTKQDDLVISAR

Columns and labels:
[1] = biological target: FAM20C, endogenous in rat hippocampal tissue (rat (endogenous in hippocampal tissue)) (UniProt B1WBN7); test: affinity purification with mass spectrometry; immunoprecipitation with an anti-FAM20C antibody from hippocampal tissue of healthy 7-day-old rats; gel strip mass spectrometry; hits filtered for the Ser-x-Glu/pSer motif
[2] = biological target: FAM20C, endogenous in rat hippocampal tissue (rat (endogenous in hippocampal tissue)) (UniProt B1WBN7); test: as above; remark: listed apart in the source

Molecule	binding [1]	binding [2]
SAFB, endogenous in rat hippocampal tissue (from UniProt O88453 1-931)	binds	–
KAP1, endogenous in rat hippocampal tissue (from UniProt O08629 1-835)	binds	–
B1	–	binds
B2	–	binds
